Results are given in words; binding and its absence hold for the method and conditions named. Binding seen in cells or lysates may run through a third protein. Some results given as binding are weak or reduced against the parent protein; the word gives no strength. For some assays here: Sequences can lack the tags named with a protein.
Legend:
Assay in all cases: co-IP
Numb-HA = Numb-HA (UniProt Q9QZS3)
[1] = target: endogenous Numb (mouse (endogenous in NIH3T3)) (UniProt Q9QZS3)
[2] = target: HA-tagged Numb with deletion of the PTB domain (aa26-173) (UniProt Q9QZS3)
[3] = target: HA-tagged Numb N+PTB domain (aa1-173) (UniProt Q9QZS3)
[4] = target: HA-tagged Numb with deletion of the N-terminus (aa1-25) (UniProt Q9QZS3)

Amino acid sequences for entries named in this document (tags omitted). A change or cut given only in a name is not applied to a line headed by its entry. Residues count along the entry.
UniProt Q9QZS3, whole entry: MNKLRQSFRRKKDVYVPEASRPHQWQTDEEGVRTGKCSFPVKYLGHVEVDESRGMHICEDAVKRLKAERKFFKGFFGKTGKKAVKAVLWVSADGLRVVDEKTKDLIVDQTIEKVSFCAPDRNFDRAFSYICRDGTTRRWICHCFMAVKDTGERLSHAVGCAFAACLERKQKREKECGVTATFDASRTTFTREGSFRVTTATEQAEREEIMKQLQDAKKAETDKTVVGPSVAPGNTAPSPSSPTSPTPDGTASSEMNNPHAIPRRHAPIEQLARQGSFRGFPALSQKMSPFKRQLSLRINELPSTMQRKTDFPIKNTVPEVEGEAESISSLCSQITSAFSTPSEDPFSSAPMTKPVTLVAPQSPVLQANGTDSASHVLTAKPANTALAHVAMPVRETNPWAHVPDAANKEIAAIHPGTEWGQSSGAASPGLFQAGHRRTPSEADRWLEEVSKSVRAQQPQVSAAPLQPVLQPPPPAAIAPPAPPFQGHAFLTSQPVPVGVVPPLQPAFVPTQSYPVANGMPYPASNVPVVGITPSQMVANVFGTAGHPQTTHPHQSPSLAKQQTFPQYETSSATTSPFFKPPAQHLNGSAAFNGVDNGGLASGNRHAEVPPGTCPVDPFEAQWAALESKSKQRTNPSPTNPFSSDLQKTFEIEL
UniProt Q9QZS3, 1-173: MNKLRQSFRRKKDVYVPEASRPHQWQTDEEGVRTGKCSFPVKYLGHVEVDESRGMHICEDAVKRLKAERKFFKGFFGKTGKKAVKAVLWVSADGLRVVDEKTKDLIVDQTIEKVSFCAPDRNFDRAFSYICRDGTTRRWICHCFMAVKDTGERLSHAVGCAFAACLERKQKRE
UniProt Q9QZS3, 26-653, stated change not applied: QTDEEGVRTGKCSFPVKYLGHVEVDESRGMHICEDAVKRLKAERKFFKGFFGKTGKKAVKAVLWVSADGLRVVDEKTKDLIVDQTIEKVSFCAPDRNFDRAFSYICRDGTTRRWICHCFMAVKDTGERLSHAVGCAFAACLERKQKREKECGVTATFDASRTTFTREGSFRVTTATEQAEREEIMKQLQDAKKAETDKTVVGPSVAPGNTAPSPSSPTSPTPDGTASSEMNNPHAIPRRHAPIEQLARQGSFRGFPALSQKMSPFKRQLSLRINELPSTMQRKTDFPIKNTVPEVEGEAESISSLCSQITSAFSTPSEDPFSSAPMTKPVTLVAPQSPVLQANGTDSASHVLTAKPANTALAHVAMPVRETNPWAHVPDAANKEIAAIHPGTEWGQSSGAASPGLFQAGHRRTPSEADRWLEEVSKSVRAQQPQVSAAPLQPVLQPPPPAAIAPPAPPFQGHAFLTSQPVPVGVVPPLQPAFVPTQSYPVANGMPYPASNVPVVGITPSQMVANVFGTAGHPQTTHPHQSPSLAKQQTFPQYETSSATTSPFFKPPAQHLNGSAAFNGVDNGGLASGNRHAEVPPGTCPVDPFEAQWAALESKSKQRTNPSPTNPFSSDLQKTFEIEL

B1: Ptch1-EGFP (receptor, UniProt Q61115 1-1434)
chain: MASAGNAAGALGRQAGGGRRRRTGGPHRAAPDRDYLHRPSYCDAAFALEQISKGKATGRKAPLWLRAKFQRLLFKLGCYIQKNCGKFLVVGLLIFGAFAVGLKAANLETNVEELWVEVGGRVSRELNYTRQKIGEEAMFNPQLMIQTPKEEGANVLTTEALLQHLDSALQASRVHVYMYNRQWKLEHLCYKSGELITETGYMDQIIEYLYPCLIITPLDCFWEGAKLQSGTAYLLGKPPLRWTNFDPLEFLEELKKINYQVDSWEEMLNKAEVGHGYMDRPCLNPADPDCPATAPNKNSTKPLDVALVLNGGCQGLSRKYMHWQEELIVGGTVKNATGKLVSAHALQTMFQLMTPKQMYEHFRGYDYVSHINWNEDRAAAILEAWQRTYVEVVHQSVAPNSTQKVLPFTTTTLDDILKSFSDVSVIRVASGYLLMLAYACLTMLRWDCSKSQGAVGLAGVLLVALSVAAGLGLCSLIGISFNAATTQVLPFLALGVGVDDVFLLAHAFSETGQNKRIPFEDRTGECLKRTGASVALTSISNVTAFFMAALIPIPALRAFSLQAAVVVVFNFAMVLLIFPAILSMDLYRREDRRLDIFCCFTSPCVSRVIQVEPQAYTEPHSNTRYSPPPPYTSHSFAHETHITMQSTVQLRTEYDPHTHVYYTTAEPRSEISVQPVTVTQDNLSCQSPESTSSTRDLLSQFSDSSLHCLEPPCTKWTLSSFAEKHYAPFLLKPKAKVVVILLFLGLLGVSLYGTTRVRDGLDLTDIVPRETREYDFIAAQFKYFSFYNMYIVTQKADYPNIQHLLYDLHKSFSNVKYVMLEENKQLPQMWLHYFRDWLQGLQDAFDSDWETGRIMPNNYKNGSDDGVLAYKLLVQTGSRDKPIDISQLTKQRLVDADGIINPSAFYIYLTAWVSNDPVAYAASQANIRPHRPEWVHDKADYMPETRLRIPAAEPIEYAQFPFYLNGLRDTSDFVEAIEKVRVICNNYTSLGLSSYPNGYPFLFWEQYISLRHWLLLSISVVLACTFLVCAVFLLNPWTAGIIVMVLALMTVELFGMMGLIGIKLSAVPVVILIASVGIGVEFTVHVALAFLTAIGDKNHRAMLALEHMFAPVLDGAVSTLLGVLMLAGSEFDFIVRYFFAVLAILTVLGVLNGLVLLPVLLSFFGPCPEVSPANGLNRLPTPSPEPPPSVVRFAVPPGHTNNGSDSSDSEYSSQTTVSGISEELRQYEAQQGAGGPAHQVIVEATENPVFARSTVVHPDSRHQPPLTPRQQPHLDSGSLSPGRQGQQPRRDPPREGLRPPPYRPRRDAFEISTEGHSGPSNRDRSGPRGARSHNPRNPTSTAMGSSVPSYCQPITTVTASASVTVAVHPPPGPGRNPRGGPCPGYESYPETDHGVFEDPHVPFHVRCERRDSKVEVIELQDVECEERPWGSSSN
- binding (Numb-HA): binds

B2: endogenous Ptch1 (receptor, UniProt Q61115 1-1434)
chain: B1 chain
- binding [1]: binds

B3: Ptch1-V5 (receptor, UniProt Q61115 1-1434)
chain: B1 chain
- binding [2]: no binding
- binding [3]: binds
- binding [4]: no binding
